## Library screening results

The values are deposited in ChEMBL (CHEMBL3988442, “University of Dundee, Small-Polar-MMV Screening Library” (2021)).

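Viability assay of Plasmodium falciparum sporozoites; the read-out is not stated. The concentration is filed as 10 mM, unlikely as a test dose, so the dose is not known. The record gives no direction; compounds that gave an IC50 in retests scored well above the rest, so higher reads as lower viability. Strong results were mostly tested again. About 34,000 compounds were tested under these conditions; 0.84% (about 280) showed 50% or more at least once.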

Values are the deposited “Percent Effect”, in %.
The controls that fix the scale are not given in the record; negative values are as filed.
The compounds are a random part of those screened.
Two or more numbers in one place are separate tests of the same structure; such repeats can differ widely.

* O=C(NCCCN1CCc2ccccc2C1)c1ccccc1Br : 4.404%
* COc1ccccc1C1CCN(C(=O)c2ncccc2OC(C)C)C1 (stereo not drawn) : -2.286%
* CCCN(Cc1cnn(C)c1)CC1CCCN(S(C)(=O)=O)C1 (stereo not drawn) : 2.743%
* Cc1cc(C(=O)NC(C)Cc2ccccc2Cl)n(C)n1 (stereo not drawn) : -580%
* CN(C)c1cc(C2CCCN(C(=O)Cn3cc(Cl)cn3)C2)ccn1 (stereo not drawn) : 0.1558%
* COc1ccc(Cl)cc1CS(=O)(=O)Cc1cc(C)on1 : -12.6%
* O=S(=O)(CCN1CCCCC1Cn1cncn1)c1ccccc1 (stereo not drawn) : 27.28%
* Cc1ccnn1CCNC(=O)C1CCN(S(=O)(=O)c2ccc(F)cc2)C1 (stereo not drawn) : 7.759%
* Cc1nc(C(=O)N2CCCCC2c2ccc(CN(C)C)cc2)c(C)o1 (stereo not drawn) : -20.62%
* O=C(C1SCCc2sccc21)N1CCN(CCO)CC1 (stereo not drawn) : -10.82%
* CSc1nccn1-c1cccc(C(=O)NCc2nnc(C)n2C)c1 : -6.764%
* Cn1cc(C[C@H]2[C@@H](O)CCN2C(=O)C2CC=CC2)cn1 : -8.827%
* CC(C)C(=O)NCc1ccc(-n2cncn2)nc1 : -12.49%
* Cc1cc(CN(C)C(=O)NCc2ccnc(N(C)C)c2)no1 : -12.9%
* O=C(CC1CC1)N1CCCn2nnc(CNc3ncccn3)c2C1 : 2.773%
* O=C(O)C(F)(F)F.O=C(O)C(F)(F)F.O=C(O)C(F)(F)F.c1cncc(CN2CCC3(COCCN(C4CCOCC4)C3)C2)c1 (stereo not drawn) : -8.759%
* COc1c(CNC2CCCN(c3ncccn3)C2)c(C(C)C)nn1C (stereo not drawn) : 10.67%
* CN1CCCCC1c1cncc(Cl)n1.Cl (stereo not drawn) : -1.214%
* CCn1ccnc1CN1CCCN(C(=O)c2ccnn2C)CC1 : 8.162%
* CCC(O)CN1CCN(C(=O)c2sccc2C(C)C)CC1 (stereo not drawn) : 2.633%
* CCOCCC(=O)N1Cc2cnc(-c3ccccc3)nc2C1 : -11.32%
* COC(=O)c1ccc(C(=O)N2CCCC(Nc3ccc(F)cc3)C2)cc1 (stereo not drawn) : -15.53%
* Cc1ccc(C(=O)NCc2cccnc2N(C)C)o1 : 7.248%
* COCCCNS(=O)(=O)c1ccc2c(c1)NC(=O)C(C)O2 (stereo not drawn) : -3.294%
* Fc1ccc(CN2CCc3ncnc(C4CC4)c3CC2)cc1.O=C(O)C(F)(F)F : 12.16% and 7.63%
* Cc1ccc(C(=O)NCCCn2cccn2)c(=O)[nH]1 : -0.9858%
* COc1ccc(-c2ccnc(C3CCNCC3)c2)cc1.Cl : 12.14%
* COCCN1CCCC(c2nc3c([nH]2)CC(C)(C)CNC3=O)C1 (stereo not drawn) : 15.18%
* Cc1cnc(-c2nc(C3CCN(C(=O)Cc4ccsc4)CC3)no2)cn1 : 4.588%
* Cc1cnc(C(=O)N(C)[C@@H]2CCC[C@@H](Oc3ccccc3)[C@@H]2O)cn1 : 11.27%
* Cc1cc(N)nc(C2(C)CCCN2C(=O)Cc2ccc(F)cc2)n1 (stereo not drawn) : 3.397%
* COCCN1CCC2(CC1)COc1ccccc1S(=O)(=O)N(C)C2 : -21.32%
* CC(C)Nc1nc(O)cc(C2CC(=O)N(Cc3ccccn3)C2)n1.Cl (stereo not drawn) : 10.31%

4 of the entries, repeated:

compound	percent effect
CCOCCC(=O)N1Cc2cnc(-c3ccccc3)nc2C1	-11.32%
COc1ccc(-c2ccnc(C3CCNCC3)c2)cc1.Cl	12.14%
Cc1cnc(-c2nc(C3CCN(C(=O)Cc4ccsc4)CC3)no2)cn1	4.588%
O=C(C1SCCc2sccc21)N1CCN(CCO)CC1 (stereo not drawn)	-10.82%